In PubChem BioAssay (NCATS):
The shares of active, inactive and inconclusive entries below differ from those in the screen. For some assays here: Potencies of inconclusive entries are doubtful fits and often do not repeat. Active and inactive are the calls of the source. Calls come from the whole dose curve; as a rule, active = well fitted curve in the direction sought with a large enough effect; inconclusive = small, poorly fitted or top-dose-only effect, or another doubt; inactive = no such curve, though single readings can be large; an effect the other way counts as inactive or inconclusive.

Tests used:
[1] = Quantitative highthroughput screen to assess conditional lethalithy of NOMO1 cells grown in Human Plasma-Like Medium with dialyzed fetal bovine serum (HPLM+ds) (AID 1963878); note: nearly all actives have a fitted effect of over 35% in size; note: potency is the fitted concentration of half-maximal effect;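 for viability: 100% = DMSO wells and 0% = empty wells on each plate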
Procedure, shortened: (§1)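 Each medium arm—HPLM with 10% dialyzed FBS, or RPMI1640 with 5 mM glucose and 10% untreated or dialyzed FBS—was screened against an 11-point, 3-fold compound titration for 48 h at 37 °C, with CellTiter-Glo luminescence as endpoint.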

[2] = Quantitative highthroughput screen to assess conditional lethalithy of SEM cells grown in Human Plasma-Like Medium with dialyzed fetal bovine serum (HPLM+ds) (AID 1963882); note: series mostly up to about 46 µM; nearly all actives have a fitted effect of over 35% in size
Procedure, shortened: as §1

[3] = Quantitative highthroughput screen to assess conditional lethalithy of SEM cells grown in RPMI1640 with unreated serum (RPMI+s) (AID 1963883); note: nearly all actives have a fitted effect of over 35% in size; note: potency is the fitted concentration of half-maximal effect;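 for viability: 100% = DMSO wells and 0% = empty wells without cells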
Procedure, shortened: as §1

[4] = Quantitative highthroughput screen to assess conditional lethalithy of SEM cells grown in RPMI1640 with dialyzed fetal bovine serum (RPMI+ds) (AID 1963884); note: potency is the fitted concentration of half-maximal effect; nearly all actives have a fitted effect of over 35% in size
Procedure, shortened: as §1

[5] = Cellular viability qHTS for adrenocortical cancer (ACC) cell line SW-13 (AID 1963989); settings: SW-13 ACC cells viability, CellTiter-Glo, 48 h; activity (max response): hits give low values; note: nearly all actives have a fitted effect of over 65% in size; note: potency is the fitted concentration of half-maximal effect;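 for activity (max response): cells grown in serum-free medium with ITS supplement; % is set by controls: 0 for no effect and ±100 for the full control effect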
Procedure, shortened: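 Luminescent ATP read-out (CellTiter-Glo, 20 min at room temperature) measured metabolically competent SW-13 cells after 48 h compound treatment. Final concentrations spanned up to 46 uM; bortezomib served as positive control.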

[6] = Quantitative highthroughput screen to assess conditional lethalithy of P12 Ichikawa cells grown in RPMI1640 with dialyzed fetal bovine serum (RPMI+ds) (AID 1963880); settings: Potency: P12-Ichikawa viability
Procedure, shortened: as §1

Q: With `O=c1[nH]c2ccccc2n1C1CCN(Cc2ccc(-c3[nH]c4cc5ncnc5cc4nc3-c3ccccc3)cc2)CC1` as the compound, how does the Potency [1] read?
A: Its Potency is “inactive”.

Q: What about the Potency [2] of the same compound?
A: The Potency was “inactive”.

Q: And the Potency [3]?
A: Its Potency is inconclusive: 16.6 µM [cytotoxic, partial curve, poor fit].

Q: What about the Potency [4] of the same compound?
A: The Potency was inconclusive: 18.7 µM [cytotoxic, partial curve, poor fit].

Q: What about the Potency [5] of the same compound?
A: The Potency was inconclusive: 25.1 µM [cytotoxic, single point].

Q: With `C#C[C@]1(O)C=C[C@@H]2[C@@H]3CCC4=CC(=O)CC[C@@H]4[C@H]3CC[C@@]21CC` as the compound, how does the Potency [3] read?
A: Its Potency is “inactive”.

Q: With `C/C(=C\c1csc(C)n1)[C@@H]1C[C@@H]2O[C@]2(C)CCC[C@H](C)[C@H](O)[C@@H](C)C(=O)C(C)(C)[C@@H](O)CC(=O)O1` as the compound, how does the Potency [5] read?
A: The Potency was inconclusive: 0.0282 µM [cytotoxic, full curve, poor fit].

Q: For `CN[C@@H]1C[C@H]2O[C@@](C)([C@@H]1OC)n1c3ccccc3c3c4c(c5c6ccccc6n2c5c31)C(=O)NC4`, which Potency [5] is on record?
A: The Potency was active: 0.1 µM.

Q: For `COP(=S)(OC)Oc1ccc(SC)c(C)c1`, which activity (max response) [5] is on record?
A: Its activity (max response) is inactive: 5.91%.

Q: With `O=S(=O)(F)Cc1ccccc1` as the compound, how does the Potency [1] read?
A: Its Potency is inconclusive: 16.6 µM [cytotoxic, partial curve, poor fit].

Q: What about the Potency [6] of the same compound?
A: The Potency was “inactive”.

Q: What about the Potency [3] of the same compound?
A: Its Potency is “inactive”.

Q: Which Potency [5] does the source give for `C1CCC(NC2CCCCC2)CC1` here?
A: Its Potency is inconclusive: 20.6 µM [cytotoxic, single point].

Q: For `CC1(C)CC[C@]2(NC(=O)C(C)(F)F)CC[C@]3(C)[C@H](C(=O)C=C4[C@@]5(C)C=C(C#N)C(=O)C(C)(C)[C@@H]5CC[C@]43C)[C@@H]2C1`, which Potency [5] is on record?
A: The Potency was active: 4.47 µM.
